These are yes or no findings as the source states them, for the method shown. Binding seen in cells or lysates may run through a third protein. Some results given as binding are weak or reduced against the parent protein; the word gives no strength. Values belong to the molecule of their own block, whether it stands above or below them.
How the values were obtained:
[1] = target: T1, Foxp3 (mouse (endogenous in CD4+ T cells of C57BL/6 mice)) (UniProt Q99JB6); experiment: co-IP; lysates (~200 μg of protein) of purified mouse CD4+ T cells, stimulated with pioglitazone or GW9662 for 24 h; anti-PPAR-γ or anti-Foxp3 for 2 h at 4°C, protein A/G-plus agarose beads overnight at 4°C; immunoblot
T1 sequence: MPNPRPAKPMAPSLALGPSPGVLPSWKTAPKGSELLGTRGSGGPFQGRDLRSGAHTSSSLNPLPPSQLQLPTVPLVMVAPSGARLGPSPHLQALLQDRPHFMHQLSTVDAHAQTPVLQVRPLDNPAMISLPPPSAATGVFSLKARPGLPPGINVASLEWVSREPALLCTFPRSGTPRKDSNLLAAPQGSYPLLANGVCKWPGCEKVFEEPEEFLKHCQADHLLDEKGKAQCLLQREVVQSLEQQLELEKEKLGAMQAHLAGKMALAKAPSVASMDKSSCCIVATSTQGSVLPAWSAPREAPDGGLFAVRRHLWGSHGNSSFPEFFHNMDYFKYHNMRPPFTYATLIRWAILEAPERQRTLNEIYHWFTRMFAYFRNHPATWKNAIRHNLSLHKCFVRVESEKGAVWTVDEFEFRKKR

By UniProt entry, the sequences of proteins in these tests, tags left out.
UniProt P37238: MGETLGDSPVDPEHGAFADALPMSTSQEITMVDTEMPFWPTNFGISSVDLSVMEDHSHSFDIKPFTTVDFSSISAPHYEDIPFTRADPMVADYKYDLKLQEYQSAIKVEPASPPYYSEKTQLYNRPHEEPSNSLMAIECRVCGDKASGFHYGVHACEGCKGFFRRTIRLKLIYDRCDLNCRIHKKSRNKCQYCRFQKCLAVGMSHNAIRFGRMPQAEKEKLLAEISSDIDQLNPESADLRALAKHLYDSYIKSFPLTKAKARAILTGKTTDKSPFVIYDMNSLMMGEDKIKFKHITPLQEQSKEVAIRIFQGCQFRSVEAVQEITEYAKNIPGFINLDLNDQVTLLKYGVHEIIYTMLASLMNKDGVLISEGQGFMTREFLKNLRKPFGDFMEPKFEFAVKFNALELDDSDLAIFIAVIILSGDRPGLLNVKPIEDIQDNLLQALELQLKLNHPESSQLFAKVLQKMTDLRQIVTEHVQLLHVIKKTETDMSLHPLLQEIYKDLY

[2] = target: Peroxisome proliferator-activated receptor-γ (mouse (endogenous in CD4+ T cells of C57BL/6 mice)) (UniProt P37238); experiment: as above

binding [1]: binds
Molecule: Peroxisome proliferator-activated receptor-γ (from UniProt P37238 1-505)

binding [2]: binds
B1: Foxp3 (protein, UniProt Q99JB6 1-417)
chain: T1 sequence
